# Test results: PMC9173638 (PLoS Genetics, 2022)
# Test system: ComR
# Test: EMSA
# Settings: sXIP, twofold dilutions up to 6 uM, ComR 3 uM; 20 mM Tris-HCl pH 8.0, 150 mM NaCl, 1 mM EDTA, 10% glycerol, 1 mg/mL BSA, 37 C 10 min; 20 ng probe in 20 uL; native 4-20% gel in Tris-MOPS pH 7.7; recombinant protein; protein details: C-terminal StrepTag; label: Cy3 at 5' end of strand 1
sequence,measurement,value
TTTTATAGTGACATATATGTCGCTATTTTA (double strand) [PcomX ComR box 30-bp probe],binding result,binds

# Construct, isoform or probe ends are uncertain for at least one entry. At least one verdict was read from the data and is not stated in words by the source.
